# Test results taken from PubChem BioAssay AID2284348 (EPA ToxCast).
# The shares of active, inactive and inconclusive entries below differ from those in the screen. A potency beside an inconclusive call is a rough fit, not a confirmed value. Active and inactive are the calls of the source. Rule for the calls: active = hit-call score of the fitted dose curve at least 0.9, where 1 is the maximum; inconclusive = response in the unintended direction; inactive = score below 0.9.
# Test system: Japanese medaka Peroxisome Proliferator-activated Receptor alpha (PPARa), gene 100304458
# Test: ATG_jmPPARa_EcoTox2: Attagene TRANS-FACTORIAL EcoTox-2 HepG2 Assay for Japanese medaka Peroxisome Proliferator-activated Receptor alpha (PPARa)
# Description: ATG_EcoTox2 is a cell-based, multiplexed assay created by modifying the existing Attagene TRANS-FACTORIAL system to include a panel of nuclear receptors from some or all the following species: human (Homo sapiens), african clawed frog (Xenopus laevis), rainbow trout (Oncorhynchus mykiss), japanese medaka (Oryzias latipes), and zebrafish (Danio rerio). The ECOTOX2-FACTORIAL format uses HepG2, a human liver cell line, with measurements taken at 24 hours after chemical dosing in a 24-well plate. ATG_jmPPARa_EcoTox2 is one of 29 assay components calculated in the ATG_EcoTox2 assay. It is designed to make measurements of mRNA induction, a form of inducible reporter, as detected with fluorescence intensity signals by Reverse transcription polymerase chain reaction (RT-PCR) and Capillary electrophoresis technology.The assay endpoint ATG_jmPPARa_EcoTox2 was analyzed in the positive analysis fitting direction relative to DMSO as the negative control and baseline of activity. Using a type of inducible reporter, measures of mRNA for gain-of-signal activity can be used to understand the reporter gene at the transcription factor-level as they relate to the gene PPARa. Furthermore, this assay endpoint can be referred to as a […], because this assay has produced multiple assay endpoints where this one serves a reporter gene function. […]
row,Structure (SMILES),AC50
1,O=P(Oc1ccccc1)(Oc1ccccc1)Oc1ccccc1,inconclusive: 50 µM
2,O=C(O)C(F)(F)C(F)(F)C(F)(F)C(F)(F)C(F)(F)C(F)(F)C(F)(F)F,active: 75 µM
